These are yes or no findings as the source states them, for the method shown. In cells and extracts the contact can be indirect. Some entries that bind do so weakly or less than the wild type. Where a sequence is shown, tags or fusion partners need not be part of it.
Target: T1, MYC epitope tagged wild type Xenopus FOG (xFOG-MYC) (Xenopus laevis) (UniProt Q9I9K0)
T1 sequence: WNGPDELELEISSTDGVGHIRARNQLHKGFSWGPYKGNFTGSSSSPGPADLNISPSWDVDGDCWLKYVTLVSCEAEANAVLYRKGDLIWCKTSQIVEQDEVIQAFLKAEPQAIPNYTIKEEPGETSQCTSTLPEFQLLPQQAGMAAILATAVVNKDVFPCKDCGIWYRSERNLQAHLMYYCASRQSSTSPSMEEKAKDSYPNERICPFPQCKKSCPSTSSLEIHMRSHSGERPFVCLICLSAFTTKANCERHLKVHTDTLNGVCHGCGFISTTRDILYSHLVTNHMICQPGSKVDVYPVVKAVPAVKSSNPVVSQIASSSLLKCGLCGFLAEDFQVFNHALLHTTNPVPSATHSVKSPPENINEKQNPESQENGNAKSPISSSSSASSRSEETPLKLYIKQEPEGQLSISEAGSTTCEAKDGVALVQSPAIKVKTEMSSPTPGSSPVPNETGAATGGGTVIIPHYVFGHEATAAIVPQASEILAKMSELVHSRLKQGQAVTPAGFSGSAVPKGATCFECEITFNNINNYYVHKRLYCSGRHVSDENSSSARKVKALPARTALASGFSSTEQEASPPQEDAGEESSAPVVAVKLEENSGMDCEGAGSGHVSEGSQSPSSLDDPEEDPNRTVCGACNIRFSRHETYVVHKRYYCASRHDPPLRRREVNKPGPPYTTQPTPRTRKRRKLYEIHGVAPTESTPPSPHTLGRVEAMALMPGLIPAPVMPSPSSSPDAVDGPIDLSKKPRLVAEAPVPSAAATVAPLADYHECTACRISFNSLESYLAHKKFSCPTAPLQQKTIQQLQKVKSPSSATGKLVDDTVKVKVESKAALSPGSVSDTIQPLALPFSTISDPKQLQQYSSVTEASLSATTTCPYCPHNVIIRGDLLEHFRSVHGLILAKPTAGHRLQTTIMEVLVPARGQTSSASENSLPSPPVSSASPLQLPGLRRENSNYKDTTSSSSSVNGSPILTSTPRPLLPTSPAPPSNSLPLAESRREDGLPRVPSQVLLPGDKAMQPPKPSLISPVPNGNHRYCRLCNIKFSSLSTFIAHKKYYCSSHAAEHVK
Assay: co-IP; HeLa cells transfected with 0.5 ug xGATA-2HA and 5.0 ug wild type or mutant xFOG-MYC; lysates after 24 hours; anti-MYC (9B11) overnight at 4 C, Protein G sepharose, four washes in binding buffer; blot with anti-HA

Sequences of proteins named here, by UniProt entry; tags and fusion partners are left off.
UniProt P23770: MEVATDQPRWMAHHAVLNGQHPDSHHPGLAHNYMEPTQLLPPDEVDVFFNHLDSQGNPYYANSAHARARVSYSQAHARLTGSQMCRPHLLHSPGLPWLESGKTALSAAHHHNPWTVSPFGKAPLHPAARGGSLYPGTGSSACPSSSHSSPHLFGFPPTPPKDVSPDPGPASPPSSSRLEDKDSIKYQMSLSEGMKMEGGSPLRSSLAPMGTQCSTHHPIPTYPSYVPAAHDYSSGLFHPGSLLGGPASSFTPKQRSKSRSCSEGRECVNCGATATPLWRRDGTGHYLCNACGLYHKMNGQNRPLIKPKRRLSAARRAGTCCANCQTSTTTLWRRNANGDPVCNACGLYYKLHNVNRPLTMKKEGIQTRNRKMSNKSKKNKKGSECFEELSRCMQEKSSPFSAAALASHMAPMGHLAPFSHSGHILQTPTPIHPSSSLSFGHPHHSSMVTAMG

## HA-tagged GATA-2 (xGATA-2HA) (from UniProt P23770 1-452)
  binding: binds

— paper PMC3250481
